Results are given in words; binding and its absence hold for the method and conditions named. Binding seen in cells or lysates may run through a third protein. Binding calls can cover weak binding; strength is not graded here. For part of these data: Sequences can lack the tags named with a protein.
Tests used:
[1] = target: T1, HA-ANXA1 (UniProt P10107); assay: co-IP; HA-ANXA1 and His-SUMO2, in the cytoplasm; OGD/R with or without Tat-NTS peptide; antibody overnight at 4 °C, Protein A+G agarose, immunoblot
T1 sequence: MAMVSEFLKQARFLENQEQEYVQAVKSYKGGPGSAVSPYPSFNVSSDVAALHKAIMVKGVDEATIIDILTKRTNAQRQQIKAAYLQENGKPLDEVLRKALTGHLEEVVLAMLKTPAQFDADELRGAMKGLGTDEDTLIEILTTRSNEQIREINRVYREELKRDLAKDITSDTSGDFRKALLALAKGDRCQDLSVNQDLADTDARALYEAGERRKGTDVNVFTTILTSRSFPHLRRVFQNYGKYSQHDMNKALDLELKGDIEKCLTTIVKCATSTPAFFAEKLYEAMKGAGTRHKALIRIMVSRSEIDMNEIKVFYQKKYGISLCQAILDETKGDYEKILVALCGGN

The chains behind the UniProt entries cited, without tags or fusion partners. Where a name states a change or a piece, a line headed by the entry shows the natural chain unless it says otherwise.
UniProt P61957: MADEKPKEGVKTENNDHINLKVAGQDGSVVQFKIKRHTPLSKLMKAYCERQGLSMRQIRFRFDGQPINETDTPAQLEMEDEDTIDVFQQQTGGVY

[2] = target: T2, Annexin-A1 (endogenous, mouse microglia) (mouse (endogenous in primary microglia and in MCAO/R mice)) (UniProt P10107); assay: co-IP; endogenous proteins, OGD/R-treated primary microglia with Tat-NTS peptide; antibody overnight at 4 °C, Protein A+G agarose, immunoblot
T2 sequence: T1 sequence

[3] = target: T2, Annexin-A1 (endogenous, mouse microglia) (mouse (endogenous in primary microglia and in MCAO/R mice)); assay: co-IP; endogenous proteins from MCAO/R mice treated with Tat-NTS or Tat-Scr peptide; IP and immunoblot

| binding [1] | binding [2] | binding [3] | Substance |
| --- | --- | --- | --- |
| binds | – | – | His-SUMO2 (from UniProt P61957) |
| – | binds | binds | SUMO2 (endogenous, mouse microglia) (from UniProt P61957) |

From publication PMC10614677
